Measured values from patent publication US20160108098A1 (GLAXOSMITHKLINE INTELLECTUAL PROPERTY DEVELOPMENT LIMITED, priority 2013, published 2016).

Experiment: general procedure: Fmoc solid-phase peptide synthesis; Rink Amide MBHA LL or Rink Amide AM LL (Novabiochem), 0.29-0.38 mmol/g; HBTU or HCTU with NMM
Settings: whole synthesis; for final HPLC purity: C18 HPLC or LC/MS, scale of the general procedure 20-400 μmol, trifluoroacetic acid salt

Substance	final HPLC purity [%]	isolated mass (scale 35 μmol, 8 TFA salt) [mg]	isolated mass (scale 40 μmol, 9 TFA salt) [mg]
PKPEAPGKDASPEELNRYYASLRKYLNWVTRQRY-NH2	>90	21	
PKPEHPGKDASPEEWNRYYASLRKYLNWVTRQRY-NH2	>90		21

The same purity stands for every peptide and may come from a single statement.
